Assay results published in PubChem BioAssay AID1259415 (National Center for Advancing Translational Sciences (NCATS), 2018).
“And” between values parts separate entries of the source, which are not always exact repeats. Equal values may be shown once. The whole screen tested about 410,000 compounds, of which about 18,000 (4.4%) were called active. Inconclusive means that the source gave no clear call. Such entries were picked first, then a sample of the others. Rule as the data show it: active = activity change below about -60%; inconclusive = no clear call, values can overlap the other calls; inactive = above about -39%.

Experiment: qHTS Assay for inhibitors of the human cytomegalovirus (HCMV)
Details: HFF cells, HCMV-luciferase reporter, 72 h; at 57.5 µM; hits give low values
Summary of the method: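 Screen run at 2 compound doses on HFFs infected with reporter HCMV, MOI 1 PFU/cell. Luciferase activity from cell lysates at 72 h post infection gave inhibition relative to buffer-only and Salinomycin wells.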
% is scaled to controls: 0 for no effect and ±100 for the full control effect.

Structure (SMILES)	activity change, negative = inhibition
CCCCN1CCc2c([nH]c3ccc(C)cc23)C1=O	inactive: 67.2%
CC(C)(C)NC(=S)N/N=C/c1cccnc1	active: -65.4%
C=CCn1c(=O)/c(=C/c2ccsc2)s/c1=C(\C#N)C(=O)NCCN1CCOCC1	inactive: 0.496%
COc1cccc(NC(=O)CN(C)S(=O)(=O)c2ccc3nc(C)sc3c2)c1	inconclusive: -47.6%
Cn1cc([C@]2(O)C(=O)Nc3cccc(Cl)c32)c2ccccc21	inactive: -3.57%
COc1ccc(N=Cc2c(O)n(Cc3cccs3)c(=O)[nH]c2=O)cc1	inconclusive: -41.6%
CCCC(=O)NC(=S)Nc1cccc(NC(=O)c2ccccc2)c1	inconclusive: -51.2%
CC(C)CN(CCNC(=O)c1cn(C)c2ccc(S(=O)(=O)N3CCOCC3)cc2c1=O)CC(C)C	inactive: 16.8%
CCN(c1ccccc1)S(=O)(=O)c1ccc2c(c1)CCCN2C(C)=O	inconclusive: -42.7%
O=C(NCCc1c[nH]c2ccccc12)/C(=C/c1cccnc1)NC(=O)c1ccccc1	inconclusive: -56.3%
COc1ccccc1N1CCN(C(=O)C(=O)c2cn(CC(=O)N3CCCCCC3)c3ccccc23)CC1	inactive: -38%
O=c1[nH]cnc2sc3c(c12)CCCCC3	inconclusive: -51.1%
O=C(O)CCC(NC(=O)c1cncc(O)c1)C(=O)O (configuration not stated)	inactive: -18.2%
N#Cc1c(NC(=O)C(=O)NCCCN2CCOCC2)sc2c1CCCC2	inactive: -33.5%
Cc1ccc(-c2c(C(=O)NCc3ccc(F)cc3)oc(=O)c3ccccc23)cc1	inconclusive: -59.6% and inconclusive: -45.1%
CC1(C)SC(=S)N(/N=C/c2ccccc2O)C1N(O)C(=O)Nc1ccccc1 (configuration not stated)	inconclusive: 0%
COc1ccccc1CCNC(=O)C(=O)NCC1OCCN1S(=O)(=O)c1ccc(F)cc1 (configuration not stated)	inconclusive: -54.3%
O=c1c2c(nc3cc(-c4ccccc4)[nH]n13)CCS2	inactive: 35.8%
CCN(CC)S(=O)(=O)c1ccc(N/N=C/c2ccc(O)cc2O)nc1	active: -101%
Cc1nn(-c2ccccc2)c(Cl)c1/C=N/NC(=O)CNC(=O)c1ccccc1Cl	inconclusive: -51.7%
Cc1ccc([C@@H]2[C@@H]3C(=O)N(C)C(=O)[C@@H]3[C@@H]3C(=O)Nc4ccccc4C(=O)N23)cc1	inconclusive: -41.7%

Structure (SMILES)	activity change, negative = inhibition
c1ccn(CCc2ccncc2)c1	inconclusive: -59.9%
CC(=O)N1CCN(S(=O)(=O)c2cccc(C(=O)Nc3ccccc3N3CCCCC3)c2)CC1	inactive: -33.8%
CCN(Cc1ccccc1)S(=O)(=O)c1ccc2c(c1)CCCN2C(C)=O	inconclusive: -41.2%
CCc1ccc(NC(=O)N2c3ccccc3Sc3ccccc32)cc1	inactive: -17.4%
C[C@@H]1CCC2[C@](C)(CO)[C@@H](O)CC[C@]2(C)[C@@]12CC[C@@](CO)(CC(=O)O)O2 (some centres not stated)	inconclusive: -47.5%
CCOC(=O)CCc1c(C)c2ccc(OCc3cc([N+](=O)[O-])ccc3OC)c(C)c2oc1=O	inconclusive: -53%
CN(C)CCN(Cc1ccco1)C(=O)c1cc2c(Cl)nc3ccccc3c2s1	inconclusive: -58.8%
COc1ccc(CNC(=O)c2ccccc2[N+](=O)[O-])cc1	active: -108%
CN(Cc1ccccc1)C(=O)c1cccc(NC(=O)Cc2ccc(NC(=O)C3CCCN(C(=O)CCc4ccccc4)C3)cc2)c1 (configuration not stated)	inactive: -2.07%
COc1cc(/C=C2\C(=N)N3N=CSC3=NC2=O)ccc1OS(=O)(=O)c1ccccc1	inactive: 3.89%
COc1ccc(Nc2nc(-c3cccs3)nc3ccccc23)cc1S(=O)(=O)N1CCOCC1	inconclusive: -45%
Cc1oc(-c2cccc(C(F)(F)F)c2)nc1CN1CCN(c2ccccn2)CC1	inconclusive: -44.2%
CC(=O)NC(=O)Nc1sc(=S)n(C)c1C	inconclusive: -41.7%
Cc1ccc(OCC(O)Cn2c(=N)n(CCN3CCOCC3)c3ccccc32)cc1 (configuration not stated)	inactive: -1.55%
Cc1ccc2c(c1)C1CC(C)(O2)N(c2cccc(C(=O)N3CCN(c4ccccn4)CC3)c2)C(=O)N1 (configuration not stated)	inconclusive: -47.8%
Cc1ccc(CN2CCSCC2)c(C)c1	inactive: 7.37%
CCN(CC)C(=O)CC(c1ccc(N(C)C)cc1)c1c(OC)cc(OC)c2ccc(=O)oc12 (configuration not stated)	inactive: -15.2%
COC(=O)CCN1CCC(c2cc(-c3cccc(C(F)(F)F)c3)n[nH]2)CC1	inconclusive: -45.5%
O=C(NCCc1csc(-c2cccc(F)c2)n1)c1ccccc1C(F)(F)F	inconclusive: -40.9%
Cc1ccnc(NC(=O)CCC(=O)N(CC(=O)NC(C)(C)C)c2ccc3c(c2)OCO3)c1	inconclusive: -44.6%
CC(C)CNC(=S)NNC(=O)c1csc2c1CCC(C)C2 (configuration not stated)	inconclusive: -47.1%

Three records drawn at random from those above, as already listed:
Structure (SMILES)	activity change, negative = inhibition
COC(=O)CCN1CCC(c2cc(-c3cccc(C(F)(F)F)c3)n[nH]2)CC1	inconclusive: -45.5%
CC(=O)N1CCN(S(=O)(=O)c2cccc(C(=O)Nc3ccccc3N3CCCCC3)c2)CC1	inactive: -33.8%
COc1ccc(Nc2nc(-c3cccs3)nc3ccccc23)cc1S(=O)(=O)N1CCOCC1	inconclusive: -45%
